Reference: publication PMC6321462
Results are given in words; binding and its absence hold for the method and conditions named. Binding seen in cells or lysates may run through a third protein. Some entries that bind do so weakly or less than the wild type. Tags and fused reporters may be left off the sequences shown.

Target: DRR1 wt, untagged (murine, expressed in HEK-293 cells) (mouse) (UniProt Q78TU8)
Assay: cross-linking; HEK-293 cells expressing untagged DRR1 proteins incubated with 200 µM BMB (cysteine-cysteine crosslinker) or DMSO, 2 h at 4 °C in PBS with 1 mM EDTA; SDS lysates, Western blot

binding: binds
B1: DRR1 wt, untagged (murine, expressed in HEK-293 cells) (protein, UniProt Q78TU8 1-144)
chain: MYSEIQRERADIEGLMARPEYREWNSELIKPKKLLNPVKASRSHQELHRELLMNHKRGLGMDSKPELQRVLEHRRRNQLIKKKEEELEAKRMQCPFKQELLRRQQRLNQLENPPQRDEDHAPEFIKVRENLRRITTLTSEERAL
